Results reported in publication PMC7176149.
Results are given in words; binding and its absence hold for the method and conditions named. Binding seen in cells or lysates may run through a third protein.

Sequences of proteins named here, by UniProt entry; tags and fusion partners are left off. A change or cut given only in a name is not applied to a line headed by its entry.
UniProt Q14738: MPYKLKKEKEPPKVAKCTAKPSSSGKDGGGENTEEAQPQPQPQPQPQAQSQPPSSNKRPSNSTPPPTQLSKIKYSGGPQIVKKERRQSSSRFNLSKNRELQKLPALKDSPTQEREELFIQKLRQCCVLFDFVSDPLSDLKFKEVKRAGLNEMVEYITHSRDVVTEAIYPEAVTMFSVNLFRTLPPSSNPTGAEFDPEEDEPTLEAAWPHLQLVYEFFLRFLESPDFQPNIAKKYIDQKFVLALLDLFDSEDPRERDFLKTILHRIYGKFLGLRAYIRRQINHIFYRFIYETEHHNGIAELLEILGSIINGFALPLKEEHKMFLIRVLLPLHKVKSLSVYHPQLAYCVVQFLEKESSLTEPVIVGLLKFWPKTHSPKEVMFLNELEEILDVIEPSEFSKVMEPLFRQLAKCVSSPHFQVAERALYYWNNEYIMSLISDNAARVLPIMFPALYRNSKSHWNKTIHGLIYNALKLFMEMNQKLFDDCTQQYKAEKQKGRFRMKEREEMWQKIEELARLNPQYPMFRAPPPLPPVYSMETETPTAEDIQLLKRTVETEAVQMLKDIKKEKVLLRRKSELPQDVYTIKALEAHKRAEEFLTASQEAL
UniProt P19517: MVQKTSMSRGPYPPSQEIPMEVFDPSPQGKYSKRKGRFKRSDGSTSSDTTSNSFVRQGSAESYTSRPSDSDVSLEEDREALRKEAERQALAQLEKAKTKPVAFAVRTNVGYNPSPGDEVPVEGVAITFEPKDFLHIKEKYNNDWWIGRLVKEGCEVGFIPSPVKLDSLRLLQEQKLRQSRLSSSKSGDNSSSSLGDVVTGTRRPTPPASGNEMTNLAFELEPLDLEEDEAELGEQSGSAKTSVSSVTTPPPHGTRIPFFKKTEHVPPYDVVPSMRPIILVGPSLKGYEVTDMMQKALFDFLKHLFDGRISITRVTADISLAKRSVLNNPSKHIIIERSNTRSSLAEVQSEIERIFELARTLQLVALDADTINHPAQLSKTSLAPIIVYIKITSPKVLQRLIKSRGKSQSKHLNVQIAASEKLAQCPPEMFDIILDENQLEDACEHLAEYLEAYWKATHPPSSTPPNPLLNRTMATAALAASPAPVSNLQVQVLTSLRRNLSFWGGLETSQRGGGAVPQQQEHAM

Molecular target: PPP2R5D (B56δ), regulatory subunit of protein phosphatase 2A (human (endogenous in HEK293T)) (UniProt Q14738)
Experiment: co-IP; endogenous PPP2R5D precipitated with anti-PPP2R5D antibody on Protein G Dynabeads from lysates of HEK293T cells transfected with a V5-tagged β subunit; 50 mM Tris-HCl pH 8, 120 mM NaCl, 1 mM EDTA, 0.5% Nonidet P40; 2 h at 4°C; blot with anti-V5-HRP and anti-β4

binding: no binding
Substance: V5-tagged calcium channel β1a subunit (rabbit) (from UniProt P19517 1-524)
